Some of the results follow.
Tests used:
Test in all cases: log2 fold change, soluble protein after heating vs DMSO (PISA); higher = thermal stabilisation; K562 cells, 10 uM, 30 min; active = over 0.2 and 3.5 SD of the protein, either way, in both replicates (recomputed)
[1] = compound: CN1CCN(CCOc2cc(OC3CCOCC3)c3c(Nc4c(Cl)ccc5c4OCO5)ncnc3c2)CC1 [saracatinib]
How it was run: (§1)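 K562 cells at 2×10^6 cells/mL were given 10 μM compound for 30 min. Aliquots then went through 3 min of heating across 48°C-58°C, were pooled, and were extracted in PBS with 0.5% NP-40 at 4°C, and the supernatant after 21,000xg for 90 min was quantified by TMTpro 16plex LC-MS/MS with channel sums equalised. Thermal stability relative to control samples, from duplicates, is given as log2 fold change.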

The chains behind the UniProt entries cited, without tags or fusion partners. Where a name states a change or a piece, a line headed by the entry shows the natural chain unless it says otherwise.
UniProt Q68D91: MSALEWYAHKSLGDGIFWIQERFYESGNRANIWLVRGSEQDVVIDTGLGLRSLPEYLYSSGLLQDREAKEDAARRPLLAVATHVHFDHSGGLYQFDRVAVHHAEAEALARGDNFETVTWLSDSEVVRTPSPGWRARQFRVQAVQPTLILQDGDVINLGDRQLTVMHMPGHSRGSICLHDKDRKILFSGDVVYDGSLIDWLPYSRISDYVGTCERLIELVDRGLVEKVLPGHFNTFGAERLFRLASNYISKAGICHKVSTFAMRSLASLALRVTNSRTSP
UniProt Q86V88: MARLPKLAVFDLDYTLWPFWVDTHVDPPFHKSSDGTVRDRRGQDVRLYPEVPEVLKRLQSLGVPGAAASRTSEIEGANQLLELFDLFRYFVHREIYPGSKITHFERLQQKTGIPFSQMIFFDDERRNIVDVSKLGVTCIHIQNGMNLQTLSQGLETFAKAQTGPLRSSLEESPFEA
UniProt Q06413, whole entry, looked up: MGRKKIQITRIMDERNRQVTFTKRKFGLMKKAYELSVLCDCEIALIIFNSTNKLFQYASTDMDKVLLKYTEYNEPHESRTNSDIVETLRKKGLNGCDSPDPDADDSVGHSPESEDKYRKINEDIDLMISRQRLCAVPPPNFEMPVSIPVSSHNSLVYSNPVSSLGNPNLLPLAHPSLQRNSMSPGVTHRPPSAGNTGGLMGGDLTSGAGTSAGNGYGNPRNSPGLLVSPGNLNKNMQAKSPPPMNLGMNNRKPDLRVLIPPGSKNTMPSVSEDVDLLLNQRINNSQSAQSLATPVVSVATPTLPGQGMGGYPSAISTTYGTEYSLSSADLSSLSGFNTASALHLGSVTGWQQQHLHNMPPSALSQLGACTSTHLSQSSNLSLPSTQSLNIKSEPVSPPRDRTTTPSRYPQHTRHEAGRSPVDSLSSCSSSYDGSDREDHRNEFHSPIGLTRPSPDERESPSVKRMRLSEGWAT
UniProt Q16626: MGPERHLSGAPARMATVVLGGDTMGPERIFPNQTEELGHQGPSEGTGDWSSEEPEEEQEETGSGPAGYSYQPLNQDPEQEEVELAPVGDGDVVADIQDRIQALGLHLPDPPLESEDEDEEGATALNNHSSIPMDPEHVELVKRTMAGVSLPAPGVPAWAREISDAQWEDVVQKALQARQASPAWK
UniProt P48163: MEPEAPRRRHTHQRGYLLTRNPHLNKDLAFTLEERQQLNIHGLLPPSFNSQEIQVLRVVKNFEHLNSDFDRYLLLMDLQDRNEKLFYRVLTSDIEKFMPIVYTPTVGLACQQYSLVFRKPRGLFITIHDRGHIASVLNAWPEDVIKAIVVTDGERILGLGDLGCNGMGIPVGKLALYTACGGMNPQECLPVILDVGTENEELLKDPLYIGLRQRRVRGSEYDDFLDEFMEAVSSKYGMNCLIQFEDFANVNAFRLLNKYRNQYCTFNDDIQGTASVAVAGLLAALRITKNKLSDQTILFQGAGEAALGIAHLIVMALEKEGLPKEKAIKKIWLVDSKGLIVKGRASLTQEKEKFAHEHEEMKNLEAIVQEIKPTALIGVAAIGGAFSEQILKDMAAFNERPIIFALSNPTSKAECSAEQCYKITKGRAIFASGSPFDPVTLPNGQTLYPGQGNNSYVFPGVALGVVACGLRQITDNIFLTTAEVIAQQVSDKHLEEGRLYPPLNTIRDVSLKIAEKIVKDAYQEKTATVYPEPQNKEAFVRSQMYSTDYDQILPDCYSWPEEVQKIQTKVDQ
UniProt Q5SR56: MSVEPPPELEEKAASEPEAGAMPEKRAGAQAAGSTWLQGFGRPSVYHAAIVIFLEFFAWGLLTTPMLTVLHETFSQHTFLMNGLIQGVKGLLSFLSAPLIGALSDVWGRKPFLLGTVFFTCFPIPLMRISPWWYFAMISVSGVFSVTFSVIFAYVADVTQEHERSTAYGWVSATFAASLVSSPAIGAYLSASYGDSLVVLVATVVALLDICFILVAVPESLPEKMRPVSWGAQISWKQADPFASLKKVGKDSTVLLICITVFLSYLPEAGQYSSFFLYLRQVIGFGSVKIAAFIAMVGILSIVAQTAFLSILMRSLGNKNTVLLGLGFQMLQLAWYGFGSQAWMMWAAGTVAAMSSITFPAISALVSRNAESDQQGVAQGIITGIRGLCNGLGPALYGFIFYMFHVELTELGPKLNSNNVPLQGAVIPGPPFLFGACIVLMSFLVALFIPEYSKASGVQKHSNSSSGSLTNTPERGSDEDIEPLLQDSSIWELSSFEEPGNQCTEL
UniProt Q7Z434: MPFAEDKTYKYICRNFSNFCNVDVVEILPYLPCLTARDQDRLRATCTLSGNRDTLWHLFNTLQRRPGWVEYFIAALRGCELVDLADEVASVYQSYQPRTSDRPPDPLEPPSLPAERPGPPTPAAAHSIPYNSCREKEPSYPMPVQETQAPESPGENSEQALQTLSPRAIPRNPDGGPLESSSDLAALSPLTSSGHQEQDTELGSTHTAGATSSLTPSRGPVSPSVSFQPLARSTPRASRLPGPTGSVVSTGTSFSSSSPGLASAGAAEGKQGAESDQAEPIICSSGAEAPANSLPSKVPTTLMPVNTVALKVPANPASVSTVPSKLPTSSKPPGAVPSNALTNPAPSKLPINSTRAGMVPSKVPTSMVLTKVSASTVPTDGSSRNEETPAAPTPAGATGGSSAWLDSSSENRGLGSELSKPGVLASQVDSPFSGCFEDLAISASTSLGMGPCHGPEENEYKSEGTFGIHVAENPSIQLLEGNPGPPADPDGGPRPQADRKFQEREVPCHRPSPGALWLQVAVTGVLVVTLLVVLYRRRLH
UniProt P40926: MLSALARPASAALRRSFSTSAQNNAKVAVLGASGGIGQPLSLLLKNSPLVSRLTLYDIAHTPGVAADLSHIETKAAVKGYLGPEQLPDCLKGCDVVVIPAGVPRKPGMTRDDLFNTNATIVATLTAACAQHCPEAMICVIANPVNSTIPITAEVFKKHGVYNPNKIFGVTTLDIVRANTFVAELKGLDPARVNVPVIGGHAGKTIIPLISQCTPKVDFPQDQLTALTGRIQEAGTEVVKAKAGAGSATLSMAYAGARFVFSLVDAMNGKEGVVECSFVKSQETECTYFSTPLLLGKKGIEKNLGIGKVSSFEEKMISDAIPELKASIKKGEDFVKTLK
UniProt Q9BV79: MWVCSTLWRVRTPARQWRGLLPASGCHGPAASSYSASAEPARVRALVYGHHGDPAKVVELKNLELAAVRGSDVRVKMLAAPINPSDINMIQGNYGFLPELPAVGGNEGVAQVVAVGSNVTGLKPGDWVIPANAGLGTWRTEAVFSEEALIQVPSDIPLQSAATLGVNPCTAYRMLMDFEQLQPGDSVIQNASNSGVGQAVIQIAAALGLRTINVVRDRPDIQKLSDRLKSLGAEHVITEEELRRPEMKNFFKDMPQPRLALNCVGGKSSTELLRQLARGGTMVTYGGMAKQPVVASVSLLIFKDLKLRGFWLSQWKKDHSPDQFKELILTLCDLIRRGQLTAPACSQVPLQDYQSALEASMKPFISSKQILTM
UniProt Q9UBP6: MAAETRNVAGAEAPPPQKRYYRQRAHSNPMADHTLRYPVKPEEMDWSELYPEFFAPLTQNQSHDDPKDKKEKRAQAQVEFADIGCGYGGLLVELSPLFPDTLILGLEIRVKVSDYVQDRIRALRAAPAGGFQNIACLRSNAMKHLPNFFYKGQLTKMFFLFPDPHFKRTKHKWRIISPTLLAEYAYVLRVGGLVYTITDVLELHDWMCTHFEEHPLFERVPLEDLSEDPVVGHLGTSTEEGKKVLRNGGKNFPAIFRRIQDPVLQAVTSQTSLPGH
UniProt Q9ULC4: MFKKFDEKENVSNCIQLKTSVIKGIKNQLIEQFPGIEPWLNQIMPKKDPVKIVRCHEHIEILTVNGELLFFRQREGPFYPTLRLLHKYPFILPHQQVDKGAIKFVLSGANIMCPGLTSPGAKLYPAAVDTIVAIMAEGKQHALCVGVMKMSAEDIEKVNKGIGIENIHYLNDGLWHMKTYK
UniProt Q00266: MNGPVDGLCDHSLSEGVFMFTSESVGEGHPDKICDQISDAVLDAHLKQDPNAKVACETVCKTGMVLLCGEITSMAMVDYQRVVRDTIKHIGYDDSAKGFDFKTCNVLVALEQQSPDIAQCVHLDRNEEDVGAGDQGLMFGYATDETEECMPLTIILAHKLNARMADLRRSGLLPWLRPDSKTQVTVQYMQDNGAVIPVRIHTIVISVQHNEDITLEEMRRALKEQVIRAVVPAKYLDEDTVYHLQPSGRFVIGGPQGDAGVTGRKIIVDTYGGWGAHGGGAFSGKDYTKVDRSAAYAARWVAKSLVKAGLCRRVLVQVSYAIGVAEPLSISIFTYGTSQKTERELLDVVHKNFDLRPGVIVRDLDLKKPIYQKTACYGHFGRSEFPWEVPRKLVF
UniProt Q12866: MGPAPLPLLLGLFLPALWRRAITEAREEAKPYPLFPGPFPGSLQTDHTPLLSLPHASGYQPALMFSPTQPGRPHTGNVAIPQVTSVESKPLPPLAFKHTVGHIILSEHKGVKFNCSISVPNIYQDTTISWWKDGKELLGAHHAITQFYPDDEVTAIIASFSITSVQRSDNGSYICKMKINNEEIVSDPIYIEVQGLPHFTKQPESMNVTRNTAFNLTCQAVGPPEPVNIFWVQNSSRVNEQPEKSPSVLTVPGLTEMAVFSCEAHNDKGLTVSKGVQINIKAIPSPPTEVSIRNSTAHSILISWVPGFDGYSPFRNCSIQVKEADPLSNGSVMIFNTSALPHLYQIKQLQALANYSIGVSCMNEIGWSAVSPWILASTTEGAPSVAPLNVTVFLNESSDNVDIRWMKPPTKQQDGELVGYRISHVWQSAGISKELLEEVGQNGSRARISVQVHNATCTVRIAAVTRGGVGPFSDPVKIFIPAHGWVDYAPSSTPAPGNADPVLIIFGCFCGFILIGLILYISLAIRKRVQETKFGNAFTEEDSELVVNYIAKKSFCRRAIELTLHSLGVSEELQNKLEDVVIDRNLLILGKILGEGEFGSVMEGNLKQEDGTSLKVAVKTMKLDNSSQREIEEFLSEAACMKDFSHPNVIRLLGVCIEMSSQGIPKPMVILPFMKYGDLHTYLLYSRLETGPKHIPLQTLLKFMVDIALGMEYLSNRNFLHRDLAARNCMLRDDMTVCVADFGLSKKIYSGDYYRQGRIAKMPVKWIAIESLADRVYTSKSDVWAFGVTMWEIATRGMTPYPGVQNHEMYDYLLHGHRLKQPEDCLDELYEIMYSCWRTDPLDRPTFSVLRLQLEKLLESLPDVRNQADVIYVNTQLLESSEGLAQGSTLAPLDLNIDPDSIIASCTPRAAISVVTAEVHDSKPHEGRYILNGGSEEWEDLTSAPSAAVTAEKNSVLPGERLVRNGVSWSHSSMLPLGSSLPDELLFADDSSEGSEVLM
UniProt Q9NR56: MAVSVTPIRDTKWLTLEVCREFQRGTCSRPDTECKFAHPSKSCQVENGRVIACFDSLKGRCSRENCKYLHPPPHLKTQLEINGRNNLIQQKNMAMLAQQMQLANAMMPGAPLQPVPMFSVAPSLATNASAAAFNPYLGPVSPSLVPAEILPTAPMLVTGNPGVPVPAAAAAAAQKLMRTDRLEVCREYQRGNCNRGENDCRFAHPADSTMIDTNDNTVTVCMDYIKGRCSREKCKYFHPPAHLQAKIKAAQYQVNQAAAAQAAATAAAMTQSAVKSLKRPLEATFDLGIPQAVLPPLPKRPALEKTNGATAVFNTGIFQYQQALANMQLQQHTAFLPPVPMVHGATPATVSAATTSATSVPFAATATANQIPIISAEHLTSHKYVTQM

[2] = compound: CN1CCN(c2nc(C3=C(c4c[nH]c5ccccc45)C(=O)NC3=O)c3ccccc3n2)CC1 [sotrastaurin]
How it was run: as §1

[3] = compound: CN1CC[C@H](c2c(O)cc(O)c3c(=O)cc(-c4ccccc4Cl)oc23)[C@H](O)C1 [alvocidib]
How it was run: as §1

[4] = compound: CN1CCc2c(c3ccccc3n2Cc2ccc(C(=O)NO)cc2)C1 [Tubastatin A]
How it was run: as §1

[5] = compound: CNC(=O)C1=CC=CC=C1NC2=NC(=NC=C2Cl)NC3=C(C=C(C=C3)N4CCOCC4)OC
How it was run: as §1

[6] = compound: CNC(=O)c1ccc(Nc2ncc(C(F)(F)F)c(NCc3nccnc3N(C)S(C)(=O)=O)n2)cc1 [defactinib]
How it was run: as §1

[7] = compound: CNCc1ccc(-c2[nH]c3cc(F)cc4c3c2CCNC4=O)cc1 [rucaparib]
How it was run: as §1

[8] = compound: CNc1nc(-c2ccc3c(N)n[nH]c3c2)cc(N2C[C@@H](C(=O)NC3CCCCC3)CC[C@H]2C)n1
How it was run: as §1

[9] = compound: COC(=O)N[C@@H](C)CNc1nccc(-c2cn(C(C)C)nc2-c2cc(Cl)cc(NS(C)(=O)=O)c2F)n1 [encorafenib]
How it was run: as §1

[10] = compound: COC(=O)[C@H](CCSC)NC(=O)C1=C(C=C(C=C1)NC[C@H](CS)N)C2=CC=CC=C2
How it was run: as §1

[11] = compound: COC1=CC=C(C=C1)CN2C=CC3=C2C=C(C=C3)C(=O)NO
How it was run: as §1

[12] = compound: CON(C)C(=O)N1N=C(c2cc(F)ccc2F)S[C@@]1(CCCN)c1ccccc1 [filanesib]
How it was run: as §1

[13] = compound: CO[C@H]1C[C@@H]2CC[C@@H](C)[C@@](O)(O2)C(=O)C(=O)N2CCCC[C@H]2C(=O)O[C@H]([C@H](C)C[C@@H]2CC[C@H](n3cnnn3)[C@H](OC)C2)CC(=O)[C@H](C)/C=C(\C)[C@@H](O)[C@@H](OC)C(=O)[C@H](C)C[C@H](C)/C=C/C=C/C=C/1C [zotarolimus]
How it was run: as §1

[14] = compound: COc1cc(C(=O)O)ccc1NC(=O)[C@@H]1N[C@@H](CC(C)(C)C)[C@](C#N)(c2ccc(Cl)cc2F)[C@H]1c1cccc(Cl)c1F [idasanutlin]
How it was run: as §1

[15] = compound: COc1cc(Nc2ncc3c(n2)-c2ccc(Cl)cc2C(c2c(F)cccc2OC)=NC3)ccc1C(=O)O [alisertib]
How it was run: as §1

[16] = compound: COc1cc2nc(-c3cc(F)ccc3O)nc(N[C@@H]3CNC[C@H]3C(C)(C)O)c2cc1OC
How it was run: as §1

[17] = compound: COc1cc2ncnc(Nc3ccc(F)c(Cl)c3)c2cc1OCCCN1CCOCC1 [gefitinib]
How it was run: as §1

[18] = compound: COc1cccc2cc(-c3nc([C@H]4CC[C@H](C(=O)O)CC4)n4ncnc(N)c34)[nH]c12
How it was run: as §1

[19] = compound: CS(=O)(=O)CCNCc1ccc(-c2ccc3ncnc(Nc4ccc(OCc5cccc(F)c5)c(Cl)c4)c3c2)o1 [lapatinib]
How it was run: as §1

[20] = compound: CS(=O)(=O)N1CCN(Cc2cc3nc(-c4cccc5[nH]ncc45)nc(N4CCOCC4)c3s2)CC1 [pictilisib]
How it was run: as §1

Measured: log2 fold change

MBLAC2 (UniProt Q68D91)
inactive: [1] 0.048 | [2] 0.045 | [3] -0.028 | [4] 0.044 | [5] -0.043 | [6] -0.018 | [7] -0.037 | [8] -0.036 | [9] -0.043 | [10] 0.031 | [11] -0.089 | [12] 0.002 | [13] 0.02 | [14] 0.012 | [15] -0.011 | [16] 0.011 | [17] 0.019 | [18] 0.054 | [19] 0.008 | [20] 0.043

MDP1 (UniProt Q86V88)
inactive: [1] -0.004 | [2] -0.022 | [3] 0.13 | [4] 0.062 | [5] -0.035 | [6] 0.116 | [7] -0.015 | [8] -0.038 | [9] -0.019 | [10] -0.005 | [11] -0.071 | [12] 0.067 | [13] -0.035 | [14] 0.015 | [15] 0.043 | [16] 0.097 | [17] 0.009 | [18] 0.098 | [19] 0.018 | [20] -0.007

MEF2C isoform 5 (UniProt Q06413)
inactive: [1] 0.268 | [2] 0.111 | [3] 0.072 | [4] -0.057 | [5] 0.041 | [6] -0.035 | [7] -0.084 | [8] -0.021 | [9] 0.031 | [10] 0.177 | [11] -0.089 | [12] 0.06 | [13] -0.143 | [14] 0.024 | [15] -0.065 | [16] -0.061 | [17] 0.035 | [18] -0.049 | [19] 0.086 | [20] 0.075

MEA1 (UniProt Q16626)
inactive: [1] 0.013 | [2] 0.115 | [3] -0.196 | [4] 0.182 | [5] -0.149 | [6] -0.005 | [7] -0.053 | [8] -0.08 | [9] -0.01 | [10] -0.007 | [11] -0.061 | [12] -0.047 | [13] -0.074 | [14] 0.121 | [15] -0.056 | [16] 0.018 | [17] 0.007 | [18] 0.074 | [19] 0.006 | [20] -0.008

MCRIP1 (UniProt I3L4Q0)
inactive: [1] 0.005 | [2] 0.039 | [3] -0.012 | [4] 0.016 | [5] -0.022 | [6] -0.024 | [7] 0.004 | [8] -0.107 | [9] -0.009 | [10] -0.012 | [11] -0.009 | [12] 0.025 | [13] 0 | [14] 0.045 | [15] 0.042 | [16] 0.013 | [17] -0.023 | [18] 0.06 | [19] -0.174 | [20] 0.03

ME1 (UniProt P48163)
inactive: [1] 0.012 | [2] 0.024 | [3] -0.029 | [4] -0.02 | [5] -0.028 | [6] 0.001 | [7] -0.085 | [8] -0.041 | [9] -0.001 | [10] 0.013 | [11] -0.084 | [12] -0.035 | [13] -0.015 | [14] -0.014 | [15] 0.055 | [16] 0.059 | [17] 0.024 | [18] 0.043 | [19] -0.024 | [20] 0.021

Two consecutive records already listed, quoted:
MEA1 (UniProt Q16626)
inactive: [1] 0.013 | [2] 0.115 | [3] -0.196 | [4] 0.182 | [5] -0.149 | [6] -0.005 | [7] -0.053 | [8] -0.08 | [9] -0.01 | [10] -0.007 | [11] -0.061 | [12] -0.047 | [13] -0.074 | [14] 0.121 | [15] -0.056 | [16] 0.018 | [17] 0.007 | [18] 0.074 | [19] 0.006 | [20] -0.008

MCRIP1 (UniProt I3L4Q0)
inactive: [1] 0.005 | [2] 0.039 | [3] -0.012 | [4] 0.016 | [5] -0.022 | [6] -0.024 | [7] 0.004 | [8] -0.107 | [9] -0.009 | [10] -0.012 | [11] -0.009 | [12] 0.025 | [13] 0 | [14] 0.045 | [15] 0.042 | [16] 0.013 | [17] -0.023 | [18] 0.06 | [19] -0.174 | [20] 0.03

(cont.)

MFSD14B (UniProt Q5SR56)
inactive: [1] -0.015 | [2] 0.074 | [3] -0.007 | [4] 0.076 | [5] 0.036 | [6] -0.17 | [7] 0.103 | [8] -0.131 | [9] -0.04 | [10] 0.11 | [11] 0.039 | [12] 0.066 | [13] -0.03 | [14] 0.035 | [15] -0.125 | [16] -0.013 | [17] -0.017 | [18] 0.214 | [19] 0.04

MAVS (UniProt Q7Z434)
inactive: [1] 0.041 | [2] 0.021 | [3] -0.01 | [4] -0.003 | [5] -0.023 | [6] -0.002 | [7] 0.014 | [8] -0.025 | [9] -0.023 | [10] -0.008 | [11] 0.047 | [12] -0.022 | [13] 0.016 | [14] -0.004 | [15] -0.093 | [16] 0.008 | [17] 0.014 | [18] 0.053 | [19] -0.009 | [20] 0.053

MDH2 (UniProt P40926)
inactive: [1] 0.057 | [2] 0.037 | [3] -0.014 | [4] -0.01 | [5] 0.079 | [6] -0.004 | [7] 0.012 | [8] -0.028 | [9] -0.054 | [10] 0.027 | [11] -0.02 | [12] -0.042 | [13] -0.026 | [14] -0.028 | [15] -0.001 | [16] -0.013 | [17] 0.005 | [18] 0.015 | [19] -0.01 | [20] -0.011

MECR (UniProt Q9BV79)
inactive: [1] 0.077 | [2] 0.031 | [3] -0.069 | [4] 0.014 | [5] -0.016 | [6] -0.051 | [7] -0.007 | [8] 0.017 | [9] -0.012 | [10] 0.002 | [11] -0.042 | [12] -0.011 | [13] 0.053 | [14] -0.13 | [15] -0.012 | [16] 0.054 | [17] 0.008 | [18] 0.028 | [19] -0.017 | [20] 0.051

METTL1 (UniProt Q9UBP6)
inactive: [1] 0.019 | [2] 0.012 | [3] -0.022 | [4] -0.058 | [5] -0.032 | [6] -0.102 | [7] 0.015 | [8] 0.023 | [9] 0 | [10] -0.042 | [11] -0.139 | [12] -0.066 | [13] -0.001 | [14] -0.03 | [15] -0.021 | [16] 0.041 | [17] 0.026 | [18] 0.026 | [19] 0.017 | [20] 0.017

MCTS1 isoform 3 (UniProt Q9ULC4)
inactive: [1] 0.022 | [2] 0.016 | [3] -0.028 | [4] 0 | [5] 0.022 | [6] -0.044 | [7] -0.026 | [8] -0.026 | [9] -0.027 | [10] 0.016 | [11] 0.004 | [12] -0.026 | [13] 0.007 | [14] -0.008 | [15] -0.046 | [16] -0.001 | [17] -0.006 | [18] 0.016 | [19] -0.013 | [20] 0.028

MAT1A (UniProt Q00266)
inactive: [1] 0.088 | [2] 0.051 | [3] 0.083 | [4] -0.027 | [5] -0.035 | [6] -0.012 | [7] 0.01 | [8] -0.026 | [9] -0.028 | [10] 0.043 | [11] -0.026 | [12] -0.051 | [13] -0.048 | [14] 0.048 | [15] -0.182 | [16] 0.031 | [17] 0.043 | [18] 0.05 | [19] 0.009 | [20] -0.021

MERTK (UniProt Q12866)
inactive: [1] -0.164 | [2] -0.029 | [3] 0.081 | [4] -0.083 | [5] -0.026 | [6] -0.02 | [7] 0.032 | [8] -0.077 | [9] 0.054 | [10] 0.107 | [11] -0.021 | [12] -0.158 | [13] -0.025 | [14] -0.026 | [15] -0.074 | [16] -0.059 | [17] 0.059 | [18] 0.015 | [19] 0.127

MBNL1 (UniProt Q9NR56)
inactive: [1] 0.077 | [2] 0.02 | [3] 0.098 | [4] -0.105 | [5] 0.003 | [6] 0.112 | [7] 0.061 | [8] -0.082 | [9] -0.019 | [10] 0.105 | [11] -0.036 | [12] 0.007 | [13] -0.061 | [14] 0.01 | [15] -0.085 | [16] -0.004 | [17] -0.001 | [18] -0.026 | [19] -0.012 | [20] 0.018

MIA3 (UniProt Q5JRA6)
inactive: [1] -0.004 | [2] -0.06 | [3] 0.009 | [4] -0.015 | [5] -0.005 | [6] -0.035 | [7] 0.01 | [8] -0.046 | [9] 0.048 | [10] 0.008 | [11] -0.032 | [12] 0.091 | [13] 0.023 | [14] 0.033 | [15] -0.029 | [16] 0.054 | [17] 0.046 | [18] -0.028 | [19] -0.004 | [20] 0

Source: the supplement of paper PMC10849652
